{"source": "patent US5401648A", "about": "“Peptides having peptidyl transferase inhibiting activity and methods of use thereof” (University of Maryland College Park, priority 1993, dated 1995)", "test_system": "peptidyl transferase activity of the 50S subunits", "assay": "Fragment reaction peptidyl transferase assay with dissociated 50S subunits", "type": "biochemical, B. subtilis BR151", "description": "The fragment reaction was used to assay peptidyl transferase activity. Reaction mixes consisted of 60 mM Tris-HCl (pH 7.4), 400 mM KCl, 20 mM magnesium sulfate, and 1 mM neutralized puromycin in 50 μl, to which was added 25 μl absolute ethanol. Unless specifically noted, 70S ribosomes purified from B. subtilis BR151 as described in Spedding^1/ were added to 0.55 uM ^35 S-labeled N-formylmethionine, charged to tRNA and digested with endonuclease T1 as described by Marcker^2/, was added to each reaction at 1×10^6 to 2×10^6 cpm.\nPeptide inhibitors were typically preincubated with the ribosomes prior to addition to the other reactants. Antibiotic inhibitors such as chloramphenicol were added to reaction mixes with the ribosomes but without the preincubation step. […] Peptidyl transferase reaction mixes were incubated on ice for 1 h, and were terminated by addition of 50 μl of 0.3M sodium acetate saturated with magnesium sulfate followed by 1 ml of ethyl acetate. The ethyl acetate phase was counted for radioactivity. All peptidyl transferase assays were performed in duplicate or triplicate, and the replicates varied by less than 5%. In separate experiments, the inhibitory activity of a single peptide preparation on a single ribosome preparation varied by as much as 10%.\nThe 50S subunit contains the target for the 5-mer peptide. […]", "note": "Not every detail of the peptide structures is certain; ends, links or a residue may be inferred. No end group written: not given here.", "data": [{"substance": "DTKVM [reverse 5-mer]", "values": [{"measurement": "effect on the peptidyl transferase activity of the 50S subunits", "setting": "50S subunits", "result": "little effect"}]}, {"substance": "MVKTD [5-mer, MVKTD]", "values": [{"measurement": "inhibition with 50S subunits relative to that observed with 70S ribosomes", "setting": "incubation of 50S subunits with peptide, fold versus 70S ribosomes", "result": "approximately twice"}]}]}
